# Results taken from the supplement of paper PMC8728848.
# This is one part of the list.
# Columns and labels:
# Assay in all cases: glycan array binding signal (z-score within array); higher = stronger binding
# Conditions in all cases: glycan notation: IUPAC condensed, linker removed
# Gal6S(b1-4)Glc6S = molecular target: Gal6S(b1-4)Glc6S
# Procedure, shortened: (§1)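 From the Consortium for Functional Glycomics database, 3228 arrays were curated, keeping only those whose protein sequence was available. Binding is given as a within-array Z-score averaged across arrays sharing a protein sequence and across linkers. Negative Z-scores can be read as non-binding.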
# Gal6S(b1-4)GlcNAc = molecular target: Gal6S(b1-4)GlcNAc
# Procedure, shortened: as §1
# Gal6S(b1-4)GlcNAc6S = molecular target: Gal6S(b1-4)GlcNAc6S
# Procedure, shortened: as §1
# GalNAc(a1-3)Gal = molecular target: GalNAc(a1-3)Gal
# Procedure, shortened: as §1
# GalNAc(a1-3)GalNAc = molecular target: GalNAc(a1-3)GalNAc
# Procedure, shortened: as §1
# [1] = molecular target: GalNAc(a1-3)GalNAc(b1-3)Gal(a1-4)Gal(b1-4)Glc
# Procedure, shortened: as §1
# [2] = molecular target: GalNAc(a1-3)GalNAc(b1-3)Gal(a1-4)Gal(b1-4)GlcNAc
# Procedure, shortened: as §1
# GalNAc(b1-3)Gal = molecular target: GalNAc(b1-3)Gal
# Procedure, shortened: as §1
# [3] = molecular target: GalNAc(b1-3)Gal(a1-4)Gal(b1-4)GlcNAc
# Procedure, shortened: as §1
# [4] = molecular target: GalNAc(b1-3)Gal(a1-4)Gal(b1-4)GlcNAc(b1-3)Gal(b1-4)Glc
# Procedure, shortened: as §1
# [5] = molecular target: GalNAc(b1-3)Gal(a1-6)Gal(b1-4)Glc
# Procedure, shortened: as §1
# GalNAc(b1-3)GalNAc = molecular target: GalNAc(b1-3)GalNAc
# Procedure, shortened: as §1
# GalNAc(b1-3)GlcNAc = molecular target: GalNAc(b1-3)GlcNAc
# Procedure, shortened: as §1
# GalNAc(b1-4)Gal(b1-4)Glc = molecular target: GalNAc(b1-4)Gal(b1-4)Glc
# Procedure, shortened: as §1
# GalNAc(b1-4)GlcNAc = molecular target: GalNAc(b1-4)GlcNAc
# Procedure, shortened: as §1
# [6] = molecular target: GalNAc(b1-4)GlcNAc(b1-2)Man
# Procedure, shortened: as §1
# [7] = molecular target: GalNAc(b1-4)GlcNAc(b1-2)Man(a1-3)[GalNAc(b1-4)GlcNAc(b1-2)Man(a1-6)]Man(b1-4)GlcNAc(b1-4)GlcNAc
# Procedure, shortened: as §1
# [8] = molecular target: GalNAc(b1-4)GlcNAc(b1-3)GalNAc(b1-4)GlcNAc
# Procedure, shortened: as §1
# GalNAc(b1-4)GlcNAc6S = molecular target: GalNAc(b1-4)GlcNAc6S
# Procedure, shortened: as §1
# GalNAc(b1-6)GalNAc = molecular target: GalNAc(b1-6)GalNAc
# Procedure, shortened: as §1
# GalNAc3S(b1-4)GlcNAc = molecular target: GalNAc3S(b1-4)GlcNAc
# Procedure, shortened: as §1
# GalNAc3S(b1-4)GlcNAc3S = molecular target: GalNAc3S(b1-4)GlcNAc3S
# Procedure, shortened: as §1
# [9] = molecular target: GalNAc3S(b1-4)[Fuc(a1-3)]GlcNAc
# Procedure, shortened: as §1
# GalNAc4S6S(b1-4)GlcNAc = molecular target: GalNAc4S6S(b1-4)GlcNAc
# Procedure, shortened: as §1
# GalNAc6S(b1-4)GlcNAc = molecular target: GalNAc6S(b1-4)GlcNAc
# Procedure, shortened: as §1
# Glc(a1-4)Glc = molecular target: Glc(a1-4)Glc
# Procedure, shortened: as §1
# [10] = molecular target: Glc(a1-4)Glc(a1-4)Glc(a1-4)Glc
# Procedure, shortened: as §1
# Glc(a1-6)Glc(a1-6)Glc = molecular target: Glc(a1-6)Glc(a1-6)Glc
# Procedure, shortened: as §1
# [11] = molecular target: Glc(a1-6)Glc(a1-6)Glc(a1-6)Glc
# Procedure, shortened: as §1
# Glc(b1-4)Glc = molecular target: Glc(b1-4)Glc
# Procedure, shortened: as §1
# Glc(b1-6)Glc = molecular target: Glc(b1-6)Glc
# Procedure, shortened: as §1
# GlcA(b1-3)Gal = molecular target: GlcA(b1-3)Gal
# Procedure, shortened: as §1
# GlcA(b1-3)GlcNAc = molecular target: GlcA(b1-3)GlcNAc
# Procedure, shortened: as §1
# GlcA(b1-6)Gal = molecular target: GlcA(b1-6)Gal
# Procedure, shortened: as §1
# [12] = molecular target: GlcA3S(b1-3)Gal(b1-4)GlcNAc(b1-2)Man
# Procedure, shortened: as §1
# [13] = molecular target: GlcA3S(b1-3)Gal(b1-4)GlcNAc(b1-3)Gal(b1-4)Glc
# Procedure, shortened: as §1
# [14] = molecular target: GlcNAc(a1-3)Gal(b1-4)GlcNAc
# Procedure, shortened: as §1
# [15] = molecular target: GlcNAc(a1-4)Gal(b1-3)GlcNAc
# Procedure, shortened: as §1
# [16] = molecular target: GlcNAc(a1-4)Gal(b1-4)GalNAc
# Procedure, shortened: as §1
# [17] = molecular target: GlcNAc(a1-4)Gal(b1-4)GlcNAc
# Procedure, shortened: as §1
# [18] = molecular target: GlcNAc(a1-4)Gal(b1-4)GlcNAc(b1-3)Gal(b1-4)Glc
# Procedure, shortened: as §1
# [19] = molecular target: GlcNAc(a1-4)Gal(b1-4)GlcNAc(b1-3)Gal(b1-4)GlcNAc
# Procedure, shortened: as §1
# [20] = molecular target: GlcNAc(a1-4)Gal(b1-4)GlcNAc(b1-3)Gal(b1-4)GlcNAc(b1-3)Gal(b1-4)GlcNAc
# Procedure, shortened: as §1
# [21] = molecular target: GlcNAc(a1-4)Gal(b1-4)GlcNAc(b1-3)Gal(b1-4)[Fuc(a1-3)]GlcNAc(b1-3)Gal(b1-4)[Fuc(a1-3)]GlcNAc
# Procedure, shortened: as §1
# [22] = molecular target: GlcNAc(a1-6)Gal(b1-4)GlcNAc
# Procedure, shortened: as §1
binder,measurement,setting,value
Pwp7 (Candida glabrata) (protein) MGSSHHHHHHSSGLVPRGSHMASKNPVDFPNLCQYPNLDGAVAGFDTEIYNADPSILINFSLWPILQFPKEWHKTIGRAITTQTNFKLPASDTTLFGVSIPTQNILIEFRGYFIPPKSGTYTFALYLTDDGSAMFLGNDAAFPCGNITSWSNPTNDQVSVSDYDPKKKTLTVYMVAGVAYPLRIAYYNREKGGSLTASFVDPDGLTHSDWNGYIWTLPSCDNCKYS,glycan array binding signal (z-score),Gal6S(b1-4)Glc6S,-0.46
same,glycan array binding signal (z-score),Gal6S(b1-4)GlcNAc,-0.869
same,glycan array binding signal (z-score),Gal6S(b1-4)GlcNAc6S,0.227
same,glycan array binding signal (z-score),GalNAc(a1-3)Gal,-1.01
same,glycan array binding signal (z-score),GalNAc(a1-3)GalNAc,-1.15
same,glycan array binding signal (z-score),[1],0.01
same,glycan array binding signal (z-score),[2],-0.508
same,glycan array binding signal (z-score),GalNAc(b1-3)Gal,-0.652
same,glycan array binding signal (z-score),[3],-0.47
same,glycan array binding signal (z-score),[4],0.293
same,glycan array binding signal (z-score),[5],0.42
same,glycan array binding signal (z-score),GalNAc(b1-3)GalNAc,-0.928
same,glycan array binding signal (z-score),GalNAc(b1-3)GlcNAc,-0.7
same,glycan array binding signal (z-score),GalNAc(b1-4)Gal(b1-4)Glc,0.576
same,glycan array binding signal (z-score),GalNAc(b1-4)GlcNAc,-1.07
same,glycan array binding signal (z-score),[6],-0.89
same,glycan array binding signal (z-score),[7],2.13
same,glycan array binding signal (z-score),[8],-0.44
same,glycan array binding signal (z-score),GalNAc(b1-4)GlcNAc6S,-0.943
same,glycan array binding signal (z-score),GalNAc(b1-6)GalNAc,-0.868
same,glycan array binding signal (z-score),GalNAc3S(b1-4)GlcNAc,-0.714
same,glycan array binding signal (z-score),GalNAc3S(b1-4)GlcNAc3S,0.586
same,glycan array binding signal (z-score),[9],-0.908
same,glycan array binding signal (z-score),GalNAc4S6S(b1-4)GlcNAc,1.42
same,glycan array binding signal (z-score),GalNAc6S(b1-4)GlcNAc,-0.54
same,glycan array binding signal (z-score),Glc(a1-4)Glc,-0.77
same,glycan array binding signal (z-score),[10],0.248
same,glycan array binding signal (z-score),Glc(a1-6)Glc(a1-6)Glc,0.293
same,glycan array binding signal (z-score),[11],1.4
same,glycan array binding signal (z-score),Glc(b1-4)Glc,-0.475
same,glycan array binding signal (z-score),Glc(b1-6)Glc,0.09
same,glycan array binding signal (z-score),GlcA(b1-3)Gal,-0.1
same,glycan array binding signal (z-score),GlcA(b1-3)GlcNAc,-1.12
same,glycan array binding signal (z-score),GlcA(b1-6)Gal,-0.416
same,glycan array binding signal (z-score),[12],0.715
same,glycan array binding signal (z-score),[13],0.239
same,glycan array binding signal (z-score),[14],-1.06
same,glycan array binding signal (z-score),[15],-0.88
same,glycan array binding signal (z-score),[16],-0.829
same,glycan array binding signal (z-score),[17],-0.268
same,glycan array binding signal (z-score),[18],-0.021
same,glycan array binding signal (z-score),[19],-0.128
same,glycan array binding signal (z-score),[20],-0.206
same,glycan array binding signal (z-score),[21],0.257
same,glycan array binding signal (z-score),[22],-0.965

# An excerpt of these results, with tabs:
binder	measurement	setting	value
Pwp7 (Candida glabrata) (protein) MGSSHHHHHHSSGLVPRGSHMASKNPVDFPNLCQYPNLDGAVAGFDTEIYNADPSILINFSLWPILQFPKEWHKTIGRAITTQTNFKLPASDTTLFGVSIPTQNILIEFRGYFIPPKSGTYTFALYLTDDGSAMFLGNDAAFPCGNITSWSNPTNDQVSVSDYDPKKKTLTVYMVAGVAYPLRIAYYNREKGGSLTASFVDPDGLTHSDWNGYIWTLPSCDNCKYS	glycan array binding signal (z-score)	GalNAc(b1-4)GlcNAc	-1.07
same	glycan array binding signal (z-score)	GlcA(b1-3)GlcNAc	-1.12
same	glycan array binding signal (z-score)	[17]	-0.268
